Reference: PubChem BioAssay AID504804 (Drosophila RNAi Screening Center, 2011)

Screen: 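dsRNAs that improve Kc cell survival under doxorubicin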 (primary screen)
Cells: Drosophila Kc cells
Knock-down reagent: long dsRNA against Drosophila genes, 0.5 µg dsRNA per well
Duration: 96 h (48 h knock-down, then 48 h drug)
Challenge: doxorubicin 5 µg/ml for 48 h, added 48 h after dsRNA
Measured: 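Luminescent ATP counts per replicate, not normalised, reflecting viable cells after 48 h dsRNA knock-down followed by 48 h of 5 µg/ml doxorubicin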
Reading the numbers: raw ATP luminescence: higher = more viable cells, protection from doxorubicin
Rule for the call: 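z-score of 2 or more over plate mean in both duplicates, retained only when retests and separate dsRNAs confirm the protection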
In all, the deposit lists about 19,000 reagents; below is an unselected part of those with a known target gene and a result. Over the whole deposit, 47 (0.25%) are marked active. 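Signals are raw, not normalised; exact z-scores behind calls not deposited; actives needed confirmation, so some wells reaching 2 SD are inactive.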 Reagent sequences are not shown.

mthl1 [DRSC19905]
- raw ATP luminescence, replicate 1: 4.03e5
- raw ATP luminescence, replicate 2: 3.00e5
- outcome: inactive

Tsp42Ee [DRSC05947]
- raw ATP luminescence, replicate 1: 74487
- raw ATP luminescence, replicate 2: 60137
- outcome: inactive

CG15172 [DRSC02473]
- raw ATP luminescence, replicate 1: 46923
- raw ATP luminescence, replicate 2: 44477
- outcome: inactive

Frl [DRSC09300]
- raw ATP luminescence, replicate 1: 66307
- raw ATP luminescence, replicate 2: 77047
- outcome: inactive

Frl [DRSC10027]
- raw ATP luminescence, replicate 1: 36387
- raw ATP luminescence, replicate 2: 27277
- outcome: inactive

Frl [DRSC10716]
- raw ATP luminescence, replicate 1: 35760
- raw ATP luminescence, replicate 2: 35560
- outcome: inactive

Sf3b3 [DRSC08370]
- raw ATP luminescence, replicate 1: 53980
- raw ATP luminescence, replicate 2: 67700
- outcome: inactive

comt [DRSC20319]
- raw ATP luminescence, replicate 1: 3.13e5
- raw ATP luminescence, replicate 2: 3.39e5
- outcome: inactive

Elba2 [DRSC00731]
- raw ATP luminescence, replicate 1: 96813
- raw ATP luminescence, replicate 2: 70420
- outcome: inactive

ITP [DRSC04222]
- raw ATP luminescence, replicate 1: 53577
- raw ATP luminescence, replicate 2: 40363
- outcome: inactive

Vps29 [DRSC00666]
- raw ATP luminescence, replicate 1: 1.17e5
- raw ATP luminescence, replicate 2: 58640
- outcome: inactive

RhoBTB [DRSC11877]
- raw ATP luminescence, replicate 1: 22343
- raw ATP luminescence, replicate 2: 19090
- outcome: inactive

TwdlS [DRSC14737]
- raw ATP luminescence, replicate 1: 58690
- raw ATP luminescence, replicate 2: 10510
- outcome: inactive

FucTC [DRSC20966]
- raw ATP luminescence, replicate 1: 2.26e5
- raw ATP luminescence, replicate 2: 2.22e5
- outcome: inactive

Prosalpha4T1 [DRSC16800]
- raw ATP luminescence, replicate 1: 78260
- raw ATP luminescence, replicate 2: 98160
- outcome: inactive

CG5281 [DRSC15761]
- raw ATP luminescence, replicate 1: 51497
- raw ATP luminescence, replicate 2: 44947
- outcome: inactive

obst-I [DRSC08339]
- raw ATP luminescence, replicate 1: 63850
- raw ATP luminescence, replicate 2: 69917
- outcome: inactive

Prosbeta2 [DRSC11257]
- raw ATP luminescence, replicate 1: 23760
- raw ATP luminescence, replicate 2: 29063
- outcome: inactive

mio [DRSC00692]
- raw ATP luminescence, replicate 1: 91520
- raw ATP luminescence, replicate 2: 98707
- outcome: inactive

CG33521 [DRSC17179]
- raw ATP luminescence, replicate 1: 2.51e5
- raw ATP luminescence, replicate 2: 2.68e5
- outcome: inactive

CG33521 [DRSC17211]
- raw ATP luminescence, replicate 1: 43370
- raw ATP luminescence, replicate 2: 49780
- outcome: inactive

ChLD3 [DRSC02640]
- raw ATP luminescence, replicate 1: 72120
- raw ATP luminescence, replicate 2: 64643
- outcome: inactive

t-Grip91 [DRSC01506]
- raw ATP luminescence, replicate 1: 3.33e5
- raw ATP luminescence, replicate 2: 2.61e5
- outcome: inactive

CG13653 [DRSC14653]
- raw ATP luminescence, replicate 1: 74740
- raw ATP luminescence, replicate 2: 99140
- outcome: inactive

CG33465 [DRSC05587]
- raw ATP luminescence, replicate 1: 73930
- raw ATP luminescence, replicate 2: 75527
- outcome: inactive

CG14641 [DRSC12227]
- raw ATP luminescence, replicate 1: 21207
- raw ATP luminescence, replicate 2: 26307
- outcome: inactive

bur [DRSC03163]
- raw ATP luminescence, replicate 1: 73040
- raw ATP luminescence, replicate 2: 62210
- outcome: inactive

Arf4 [DRSC17195]
- raw ATP luminescence, replicate 1: 68110
- raw ATP luminescence, replicate 2: 75810
- outcome: inactive

mRpL3 [DRSC20100]
- raw ATP luminescence, replicate 1: 3.61e5
- raw ATP luminescence, replicate 2: 3.13e5
- outcome: inactive

CG30325 [DRSC05685]
- raw ATP luminescence, replicate 1: 1.60e5
- raw ATP luminescence, replicate 2: 1.33e5
- outcome: inactive

Fur2 [DRSC19817]
- raw ATP luminescence, replicate 1: 2.65e5
- raw ATP luminescence, replicate 2: 2.66e5
- outcome: inactive

onecut [DRSC17175]
- raw ATP luminescence, replicate 1: 47820
- raw ATP luminescence, replicate 2: 54960
- outcome: inactive

Cul3 [DRSC03537]
- raw ATP luminescence, replicate 1: 92200
- raw ATP luminescence, replicate 2: 56870
- outcome: inactive

Nup107 [DRSC01999]
- raw ATP luminescence, replicate 1: 21507
- raw ATP luminescence, replicate 2: 29607
- outcome: inactive

Paf-AHalpha [DRSC20267]
- raw ATP luminescence, replicate 1: 3.65e5
- raw ATP luminescence, replicate 2: 3.11e5
- outcome: inactive

CG6800 [DRSC16119]
- raw ATP luminescence, replicate 1: 44030
- raw ATP luminescence, replicate 2: 59540
- outcome: inactive

Reformatted: entries from further up.
{"gene":"Frl","dsRNA":"DRSC10027","raw ATP luminescence, replicate 1":36387,"raw ATP luminescence, replicate 2":27277,"outcome":"inactive"}
{"gene":"Frl","dsRNA":"DRSC10716","raw ATP luminescence, replicate 1":35760,"raw ATP luminescence, replicate 2":35560,"outcome":"inactive"}
{"gene":"Sf3b3","dsRNA":"DRSC08370","raw ATP luminescence, replicate 1":53980,"raw ATP luminescence, replicate 2":67700,"outcome":"inactive"}
{"gene":"comt","dsRNA":"DRSC20319","raw ATP luminescence, replicate 1":3.13e5,"raw ATP luminescence, replicate 2":3.39e5,"outcome":"inactive"}
{"gene":"Elba2","dsRNA":"DRSC00731","raw ATP luminescence, replicate 1":96813,"raw ATP luminescence, replicate 2":70420,"outcome":"inactive"}
